{"sequences": {"note": "Protein sequences, listed by entry. Tags and fused reporters are not part of them. Lines headed by an entry give the natural chain unless they say otherwise; changes in a name come on top.", "UniProt P37231": "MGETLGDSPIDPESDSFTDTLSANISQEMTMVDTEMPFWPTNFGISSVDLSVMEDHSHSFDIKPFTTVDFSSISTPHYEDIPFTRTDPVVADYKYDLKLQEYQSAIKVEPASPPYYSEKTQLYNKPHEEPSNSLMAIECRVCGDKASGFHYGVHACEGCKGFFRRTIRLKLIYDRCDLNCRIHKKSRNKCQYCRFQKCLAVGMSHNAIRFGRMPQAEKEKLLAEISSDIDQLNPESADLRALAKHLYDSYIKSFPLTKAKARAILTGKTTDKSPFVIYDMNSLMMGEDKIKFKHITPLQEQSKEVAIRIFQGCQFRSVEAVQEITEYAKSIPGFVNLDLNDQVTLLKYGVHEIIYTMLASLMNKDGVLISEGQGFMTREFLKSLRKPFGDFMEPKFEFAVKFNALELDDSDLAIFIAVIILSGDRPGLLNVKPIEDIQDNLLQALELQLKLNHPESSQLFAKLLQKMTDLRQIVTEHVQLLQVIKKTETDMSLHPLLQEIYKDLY"}, "source": "PubChem BioAssay (EPA / NIEHS)", "note": "This list was built around the results that the source calls inconclusive (neither active nor inactive); the mix of calls is not that of the screen. A potency beside an inconclusive call is a rough fit, not a confirmed value. Active and inactive are the calls of the source. Rule for the calls: active = hit-call score of the fitted dose curve at least 0.9, where 1 is the maximum; inconclusive = response in the unintended direction; inactive = score below 0.9."}
{"target": "Peroxisome proliferator-activated receptor gamma (Homo sapiens) (UniProt P37231)", "experiment": "NVS_NR_hPPARg: NovaScreen (NVS) Nuclear Receptor Binding Assay for human Peroxisome Proliferator-activated Receptor gamma (PPARg) (AID 2283370)", "summary_of_the_method": "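Fluorescence polarization measures competitive binding to extracted PPARg in a cell-free format. Reading is taken at 2 h; activity is signal loss relative to DMSO. Screening at 25 uM in duplicate preceded confirmatory dose series.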"}
{"smiles": "CCc1cnc(C2=NC(C)(C(C)C)C(=O)N2)c(C(=O)O)c1", "note": "(stereo unspecified)", "AC50": "inconclusive: 0.101 µM"}
{"smiles": "CC(C)N1C(=O)c2ccccc2NS1(=O)=O", "AC50": "inconclusive: 25 µM"}
{"smiles": "CC(Cc1ccc(OCC(=O)O)cc1)NCC(O)c1csc(C(F)(F)F)n1", "note": "(stereo unspecified)", "AC50": "inconclusive: 42.8 µM"}
{"smiles": "CCSC(=O)N1CCCCCC1", "outcome": "inactive"}
{"smiles": "C[C@H]1CCCC(=O)CCC/C=C/c2cc(O)cc(O)c2C(=O)O1", "AC50": "active: 2.15 µM"}
{"smiles": "CCC(C)(CC)c1cc(NC(=O)c2c(OC)cccc2OC)on1", "AC50": "inconclusive: 0.688 µM"}
{"smiles": "COP(=O)(OC)SCn1c(=O)oc2cc(Cl)cnc21", "AC50": "inconclusive: 25 µM"}
{"smiles": "Cc1ccc(N=C=O)cc1N=C=O", "AC50": "inconclusive: 0.309 µM"}
{"smiles": "COCCl", "AC50": "active: 4.2 µM"}
{"smiles": "Nc1ccc2ccccc2c1", "outcome": "inactive"}
{"smiles": "O=[N+]([O-])c1ccc(Cl)c(Cl)c1", "AC50": "active: 9.12 µM"}
{"smiles": "CCCCCCCCn1sccc1=O", "AC50": "active: 0.693 µM"}
{"smiles": "CN(C)c1nc(=O)n(C2CCCCC2)c(=O)n1C", "AC50": "inconclusive: 41.4 µM"}
{"smiles": "Nn1cnnc1", "outcome": "inactive"}
{"smiles": "CCC(CC)Nc1c([N+](=O)[O-])cc(C)c(C)c1[N+](=O)[O-]", "outcome": "inactive"}
{"smiles": "O=C(NC(=O)c1cc(F)c(F)cc1Cl)Nc1cc(F)ccc1N1CCC(C(=O)O)CC1", "outcome": "inactive"}
